The target of the assay is T1, intein-BHMT (betaine homocysteine S-methyltransferase) (R. norvegicus) (UniProt O09171).
T1 sequence: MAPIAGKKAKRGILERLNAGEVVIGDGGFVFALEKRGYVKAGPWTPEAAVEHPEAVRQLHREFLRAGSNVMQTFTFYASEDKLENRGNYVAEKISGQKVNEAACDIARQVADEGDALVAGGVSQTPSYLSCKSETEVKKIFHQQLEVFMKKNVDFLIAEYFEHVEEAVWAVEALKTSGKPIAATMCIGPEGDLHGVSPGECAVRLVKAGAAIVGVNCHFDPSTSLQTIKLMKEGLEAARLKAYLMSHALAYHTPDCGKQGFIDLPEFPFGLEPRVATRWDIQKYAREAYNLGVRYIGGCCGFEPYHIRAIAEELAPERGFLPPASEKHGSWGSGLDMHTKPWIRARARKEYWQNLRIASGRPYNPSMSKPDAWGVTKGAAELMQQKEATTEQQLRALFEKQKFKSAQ
Description: affinity purification with mass spectrometry; intein-BHMT held on chitin beads; rat liver cytosol first passed over a bead-only and an intein column; 10 mM sodium phosphate pH 7.4, 5 mM EDTA, 0.1 mM EGTA, 4°C; bound proteins eluted with a 0-500 mM NaCl gradient (peak at 50-100 mM NaCl); LC-MS/MS; only the target purified.

For eleven molecules, binding results are on record in PMC6010280.

No constants are given. Whether binding was seen depends on the method and setting. Binding seen in cells or lysates may run through a third protein. Here binding means that the protein was enriched with, or labelled near, the bait; the list need not be complete.

B1: NADPH oxidase 3 (protein, UniProt Q672K1 1-568)
chain: MPTCWILNESVSFVVALLWLAINIYLFIDTFCWYAEEESFFYTRVILGSALAWARASAVCLNFNCMLILLPVSRNFVSLVRGTSVCCRGPWRRQLDKNLKFHKLVAYGIAVNSVIHIVAHLFNLERYHLGQAKDAEGLLAALSKLGNAPNESYLNPVRTLYTGTTTQLLMTVSGITGLVISLALILIMTSSTEFIRQSSYELFWYTHHIFIFLFISLAIHGGGRIIRGQTPESLRLHNVTFCRDHFDEWQEAASCPVPQFSGKEPSAWKWTLGPVVLYACEIIIRFWRSHQEVVITKVVSHPSAVLELHMKKRDFKMAPGQYIFIQCPSISPLEWHPFTLTSAPQEDFFSVHIRASGDWTEALLKAFGAEGQAPSELCSMPRLAVDGPFGGSLADVFHYPVSVCIATGIGVTPFASLLKSVWYKCCESQSLPGLSKVYFYWICRDAAAFEWFADLLLSLETQMSEQGKAHLLSYHIYLTGWDEYQAIHIALHWDESLDVITGLKQKTFYGRPNWNEEFKQIAYNHPSSSIGVFFCGPKAMSKTLQKMCRLYSSSDPRGVHFYYNKENF
B1: the binding entry was “binds”.

B2: Transglutaminase 2, C polypeptide (protein, UniProt Q9WVJ6 1-686)
chain: MAEELNLERCDLEIQANGRDHHTADLCQQKLVLRRGQRFRLTLYFEGRGYEASVDRLTFGAVTGPDPSEEAGTKARFSLSDDVEEGSWSASVLDQQDNVLSLQLCTPANAPVGQYRLSLETSTGYQGSSFMLGHFILLFNAWCPADDVYLDSEAERREYVLTQQGFIYQGSVKFIKSVPWNFGQFEDGILDACLMLLDVNPKFLKDRSRDCSRRSSPIYVGRVVSGMVNCNDDQGVLLGRWDNNYGDGISPMAWIGSVDILRRWKEHGCQQVKYGQCWVFAAVACTVLRCLGIPTRVVTNYNSAHDQNSNLLIEYFRNEYGELESNKSEMIWNFHCWVESWMTRPDLQPGYEGWQAIDPTPQEKSEGTYCCGPVSVRAIKEGDLSTKYDASFVFAEVNADVVDWIRQSDGSVLKSINNSLVVGQKISTKSVGRDDREDITYTYKYPEGSPEEREVFTRANHLNKLAEKEETGVAMRIRVGDGMSLGNDFDVFAHIGNDTSESRECRLLLCARTVSYNGVLGPECGTEDINLTLDPYSENSIPLRILYEKYSGCLTESNLIKVRGLLVEPAANSYLLAERDLYLENPEIKIRILGEPKQNRKLVAEVSLKNPLSDSLYDCVFTVEGAGLTKEQKSVEVSDPVPAGDAVKVRVDLFPTDIGLHKLVVNFQCDKLKSVKGYRNIIIGPA
Turning to B2, the binding entry was “binds”.

B3: Tissue-type transglutaminase (protein, UniProt Q9WVJ6 1-686)
chain: MAEELNLERCDLEIQANGRDHHTADLCQQKLVLRRGQRFRLTLYFEGRGYEASVDRLTFGAVTGPDPSEEAGTKARFSLSDDVEEGSWSASVLDQQDNVLSLQLCTPANAPVGQYRLSLETSTGYQGSSFMLGHFILLFNAWCPADDVYLDSEAERREYVLTQQGFIYQGSVKFIKSVPWNFGQFEDGILDACLMLLDVNPKFLKDRSRDCSRRSSPIYVGRVVSGMVNCNDDQGVLLGRWDNNYGDGISPMAWIGSVDILRRWKEHGCQQVKYGQCWVFAAVACTVLRCLGIPTRVVTNYNSAHDQNSNLLIEYFRNEYGELESNKSEMIWNFHCWVESWMTRPDLQPGYEGWQAIDPTPQEKSEGTYCCGPVSVRAIKEGDLSTKYDASFVFAEVNADVVDWIRQSDGSVLKSINNSLVVGQKISTKSVGRDDREDITYTYKYPEGSPEEREVFTRANHLNKLAEKEETGVAMRIRVGDGMSLGNDFDVFAHIGNDTSESRECRLLLCARTVSYNGVLGPECGTEDINLTLDPYSENSIPLRILYEKYSGCLTESNLIKVRGLLVEPAANSYLLAERDLYLENPEIKIRILGEPKQNRKLVAEVSLKNPLSDSLYDCVFTVEGAGLTKEQKSVEVSDPVPAGDAVKVRVDLFPTDIGLHKLVVNFQCDKLKSVKGYRNIIIGPA
Regarding B3, the binding result was “binds”.

B4: RAB10 Ras-related protein Rab-10 (protein, UniProt P35281 1-200)
chain: MAKKTYDLLFKLLLIGDSGVGKTCVLFRFSDDAFNTTFISTIEIDFKIKTVELQGKKIKLQIWDTAGQERFHTITTSYYRGAMGIMLVYDITNGKSFENISKWLRNIDQHANEDVERMLLRNKCDMDHKRVVPKGKGEQIAREHRIRFFETSAKANINIEKAFLTLPEDILRKTPVKEPNSENVDISSGGGVTGWKSKCC
With B4, the binding result is listed as “binds”.

B5: C1QBP Complement component 1 Q subcomponent-binding protein, mitochondrial (protein, UniProt O35796 72-279)
chain: LHTEGDKAFVEFLTDEIKEEKKIQKHKSLPKMSGDWELEVNGTEAKLLRKVAGEKITVTFNINNSIPPTFDGEEEPSQGQKAEEQEPELTSTPNFVVEVTKTDGKKTLVLDCHYPEDEIGHEDEAESDIFSIKEVSFQTTGDSEWRDTNYTLNTDSLDWALYDHLMDFLADRGVDNTFADELVELSTALEHQEYITFLEDLKSFVKSQ
As to B5, the binding entry was “binds”.

B6: Heterogeneous nuclear ribonucleoprotein H2 (protein, UniProt Q6AY09 1-449)
chain: MMLSTEGREGFVVKVRGLPWSCSAEEVMRFFSDCKIQNGTSGVRFIYTREGRPSGEAFVELESEDEVKLALKKDRETMGHRYVEVFKSNSVEMDWVLKHTGPNSPDTANDGFVRLRGLPFGCSKEEIVQFFSGLEIVPNGMTLPVDFQGRSTGEAFVQFASQEIAEKALKKHKERIGHRYIEIFKSSRAEVRTHYDPPRKLMTMQRPGPYDRPGAGRGYNSIGRGAGFERMRRGAYGGGYGGYDDYGGYNDGYGFGSDRFGRDLNYCFSGMSDHRYGDGGSSFQSTTGHCVHMRGLPYRATENDIYNFFSPLNPMRVHIEIGPDGRVTGEADVEFATHEDAVAAMAKDKANMQHRYVELFLNSTAGTSGGAYDHSYVELFLNSTAGASGGAYGSQMMGGMGLSNQSSYGGPASQQLSAGYGGGYGGQSSMSGYDQVLQENSSDYQSNLA
For the molecule B6, the binding entry is “binds”.

B7: ENPP6 Ectonucleotide pyrophosphatase/phosphodiesterase family member 6 (protein, UniProt B0BND0 23-419)
chain: HRKLLVLLLDGFRSDYISEDALASLPGFREIVNRGVKVDYLTPDFPSLSYPNYYTLMTGRHCEVHQMIGNYMWDPRTNKSFDIGVNRDSLMPLWWNGSEPLWITLMKARRKVYMYYWPGCEVEILGVRPTYCLEYKNVPTDINFANAVSDALDSLKSGRADLAAIYHERIDVEGHHYGPSSPQRKDALKAVDTVLKYMTQWIQERGLQNDLNVILFSDHGMTDIFWMDKVIELSKYISLDDLQQVKDQGPVVSLWPVPEKHSEIYHKLRTVEHMTVYEKEAIPNRFYYKKGKFVSPLTLVADEGWFIAESREALPFWMNSTGKREGWQHGWHGYDNELMDMRGIFLAFGPDFKSNFRAAPIRSVDVYNIMCNVVGITPLPNNGSWSRVVCMLKSQTS
With B7, the binding entry is given as “binds”.

B8: SSBP1 Single-stranded DNA-binding protein, mitochondrial (protein, UniProt P28042 17-151)
chain: ESEVASSLVLERSLNRVQLLGRVGQDPVMRQVEGKNPVTIFSLATNEMWRSGDNEAYQMGDVSQKTTWHRISVFRPGLRDVAYQYVKKGARIFVEGKVDYGEYMDKNNVRRQATTIIADNIIFLSDQAREKPLNG
Regarding B8, the binding entry is given as “binds”.

B9: Nuclear pore complex protein Nup107 (protein, UniProt P52590 1-926)
chain: MDRSGFGGMSSPVIRDPEVTRTARKHSAHKRVLIQANQDENFGTTTPRSQIIPRTPSSFRQPFTPPSRSLLRHPDISYIFGTEGRSPRHIQSSGYLGNLSMVTNLDDSNWAAAFSSQRLGFYTNTEHHSMTEDINLSTVMLREDDPGEAASMSMFSDFLQSFLKHSSTTVFDLVEEYENICASQVNILSKIVSRATRWDWQKFSKTASMLWLLQQEMVTWRLLASLYRDRIQSSLEEENMFAIAGINASEKTVVEALFQRDSLVRQSQLVVDWLESIAKDEIGDFSDNIEFYAKSVYWENTLHSLKQRQLLSYIGSTRPLVTELDPDAPIRQKMPLDDLDREDEVRLLKYLFTLIRAGMTEEAQRLCKRCGQAWRAATLEGWKLHHDPNVNGGTELEPVEGNPYRRIWKISCWRMAEDELFNKYERAIYAALSGNLKQLLPVCDTWEDTVWAYFRVMVDSLVEQEIRTSVMTLDETEELPREYMEANWTLEKVFEELQATDKKRVLEENQEHYHVVQKFLILGDIDGLMDEFSKWLSKSRSSLPGHLLRFMTHLILFFRTLGLQTKEEVSIEVLKTYIQLLINEKHTNLIAFYTCHLPQDLAVAQYALFLEGVTECEQRHQCLELAKEADLDVATITKTVVENIRKKDNGEFSHHDLAPSLDTATTEEDRLKIDVIDWLVFDPAQRAEALRQGNAIMRKFLALKKHEAAKEVFVKIPQDSIAEIYNQWEEQGMESPLPAEDDNAIREHLCIRAYLEAHETFNERFKHMNSAPQKPTLLSQATFTEKVAHEHKEKKYEMDHNIWKGHLDALTADVKEKMYNVLLFVDGGWMVDVREDAEEDPERAHQMVLLRKLCLPMLCFLLHTILHSTGQYQECLQLADMVSSERHKLYLVFSKEELRKLLQKLRESSLMLLDQGLDPLGYEIQS
Turning to B9, the binding result is reported as “binds”.

B10: Acetyl-CoA acetyltransferase, mitochondrial (protein, UniProt P17764 31-424)
chain: ASKPTLNDVVIVSATRTPIGSFLGSLASQPATKLGTIAIQGAIEKAGIPKEEVKEVYMGNVIQGGEGQAPTRQATLGAGLPIATPCTTVNKVCASGMKAIMMASQSLMCGHQDVMVAGGMESMSNVPYVMSRGATPYGGVKLEDLIVKDGLTDVYNKIHMGNCAENTAKKLSISREEQDKYAIGSYTRSKEAWDAGKFANEITPITISVKGKPDVVVKEDEEYKRVDFSKVPKLKTVFQKENGTVTAANASTLNDGAAAVVLMTAEAAQRLKVKPLARIAAFADAAVDPIDFPLAPAYAVPKVLKYAGLKKEDIAMWEVNEAFSVVVLANIKMLEIDPQKVNVHGGAVSLGHPIGMSGARIVVHLAHALKQGEFGLASICNGGGGASAVLIEKL
For the molecule B10, the binding result is recorded as “binds”.

B11: Methionine adenosyltransferase 2 subunit beta, MATβ (protein, UniProt Q5U2R0 1-334)
chain: MVGREKELSIHFVPGCCQLVEEEVNIPSRRVLITGATGLLGRAVYKEFQQSNWHAVGCGFRRARPKFEQVNLLDSEAVHHLIHDFQPHVIVHCAAERRPDVVESQPDAASQLNVGASGNLAKEAAAIGAFLIYISSDYVFDGTNPPYTEEDIPSPLNLYGKTKLDGEKAVLENNLGAAVLRIPVLYGEVEKLEESAVTVMFDKVQFSNKSANMDHWQQRFPTHVKDVASVCRQLAEKRMLDPSIKGTFHWSGNEQMTKYEMACAIADAFNLPSSHLRPITDSPVIGAQRPKNAQLDCSKLETLGIGQRTPFRIGIKESLWPFLIDKRWRQTVFH
In the case of B11, the binding result was “binds”.
